From the supplement of paper PMC10973195
± gives the standard deviation of the averaged measurements. The list shows a part of the results. These are raw signals, not scaled to a control.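 In this assay, LPS from bacteria induces microglia-mediated neuronal death in a neuron–microglia–astrocyte co-culture, a model of inflammatory neurodegeneration. Compounds were compared against same-plate DMSO vehicle wells, with the SYK inhibitor BAY61-3606 as reference neuroprotective control.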

Key:
Settings in all cases: 1 µM, treatment time 3 days
[1] = system: rat primary cerebellar neuron-glia coculture; assay: microglia count (IB4+) per image field (cells per field); higher = more microglia
[2] = system: rat primary cerebellar neuron-glia coculture; assay: necrotic cell count (DRAQ7+) per image field (cells per field); higher = more necrosis
[3] = system: rat primary cerebellar neuron-glia coculture; assay: live neuron count (NeuO+) per image field (cells per field); higher = more surviving neurons
[4] = system: rat primary cerebellar neuron-glia coculture; assay: median microglial FormFactor (circularity) per image (dimensionless (0-1)); higher = rounder, more ameboid microglia

Row | Compound | microglia count ([1]; LPS 0 ng/mL) | microglia count ([1]; LPS 100 ng/mL) | necrotic cell count ([2]; LPS 0 ng/mL) | necrotic cell count ([2]; LPS 100 ng/mL) | live neuron count ([3]; LPS 0 ng/mL) | live neuron count ([3]; LPS 100 ng/mL) | median microglial FormFactor ([4]; LPS 0 ng/mL) | median microglial FormFactor ([4]; LPS 100 ng/mL)
1 | CC(C)(c1ccc(O)cc1)c1ccc(O)cc1 | 189 ± 63 | 434 ± 91 | 79.5 ± 24 | 1010 ± 420 | 2630 ± 420 | 248 ± 230 | 0.533 ± 0.093 | 0.631 ± 0.044
2 | CC1(C)CC[C@]2(C(=O)O)CC[C@]3(C)[C@H](C(=O)C=C4[C@@]5(C)C=C(C#N)C(=O)C(C)(C)[C@@H]5CC[C@]43C)[C@@H]2C1 | 123 ± 49 | 459 ± 74 | – | – | – | – | 0.635 ± 0.12 | 0.695 ± 0.045
3 | COc1ccc(-c2nc(-c3cccs3)[nH]c2-c2ccc(OC)cc2)cc1 | 172 ± 52 | 572 ± 130 | – | – | – | – | 0.554 ± 0.083 | 0.495 ± 0.087
4 | CCCc1cc(C)[nH]c(=O)c1CNC(=O)c1cc(-c2ccnc(N3CCN(C)CC3)c2)cc2c1cnn2C(C)C | 195 ± 45 | 388 ± 87 | 63.8 ± 27 | 671 ± 380 | 1870 ± 340 | 761 ± 370 | 0.515 ± 0.082 | 0.73 ± 0.095
5 | CC1Cc2ccccc2N1NC(=O)c1ccc(Cl)c(S(N)(=O)=O)c1 (stereo unspecified) | 163 ± 44 | 446 ± 80 | 80.6 ± 29 | 792 ± 320 | 2610 ± 410 | 668 ± 960 | 0.532 ± 0.063 | 0.663 ± 0.082
6 | CC[C@@H](C)Nc1cc(C(=O)NC2CC3CCC(C2)N3c2ccc(C(=O)C3CC3)cn2)c(C)cc1C(N)=O (stereo partly specified) | 44.1 ± 56 | 81.8 ± 150 | – | – | – | – | 0.468 ± 0.079 | 0.494 ± 0.07
7 | O=C(NOC[C@H](O)CO)c1ccc(F)c(F)c1Nc1ccc(I)cc1F | 20.5 ± 10 | 117 ± 34 | 328 ± 88 | 1540 ± 740 | 2780 ± 260 | 1450 ± 970 | 0.566 ± 0.074 | 0.699 ± 0.044
8 | Cc1nc(-c2ccccc2)sc1C(=O)Nc1ccc(S(N)(=O)=O)cc1 | 168 ± 34 | 392 ± 63 | 86.7 ± 18 | 1070 ± 400 | 2680 ± 430 | 533 ± 800 | 0.56 ± 0.051 | 0.672 ± 0.051
9 | COc1cc2ncnc(Nc3cccc(Cl)c3F)c2cc1OC(=O)N1CCN(C)C[C@H]1C | 178 ± 35 | 444 ± 68 | – | – | – | – | 0.533 ± 0.058 | 0.643 ± 0.11
10 | CCOC(=O)[C@H](CCc1ccccc1)N[C@@H](C)C(=O)N1CCC[C@H]1C(=O)O | 180 ± 43 | 452 ± 83 | – | – | – | – | 0.551 ± 0.12 | 0.638 ± 0.068
11 | NC(=O)c1ccc(N(C(N)=O)c2c(F)cccc2F)nc1-c1ccc(F)cc1F | 169 ± 44 | 441 ± 93 | 79 ± 31 | 821 ± 380 | 2560 ± 500 | 694 ± 940 | 0.547 ± 0.085 | 0.666 ± 0.071
12 | O=C1NCCSc2c1sc1ccc(O)cc21 | 178 ± 60 | 419 ± 94 | 70.2 ± 18 | 1070 ± 260 | 3080 ± 300 | 572 ± 520 | 0.474 ± 0.076 | 0.64 ± 0.063
13 | NNC(=O)c1cc(-c2ccc(Cl)cc2Cl)n[nH]1 | 164 ± 44 | 453 ± 120 | 82.2 ± 37 | 994 ± 270 | 2630 ± 500 | 409 ± 440 | 0.547 ± 0.085 | 0.652 ± 0.062
14 | Cc1ncc(Cl)cc1NCc1ccc(C(=O)N[C@@H](CC2CCCC2)C(=O)NC2CC2)s1 | 144 ± 28 | 398 ± 57 | – | – | – | – | 0.534 ± 0.037 | 0.699 ± 0.086
15 | Clc1ccc(CNc2nccc(-c3ccc4[nH]ncc4c3)n2)cc1Cl | 167 ± 38 | 434 ± 90 | 93.2 ± 42 | 1040 ± 320 | 2740 ± 540 | 353 ± 220 | 0.554 ± 0.12 | 0.657 ± 0.045
16 | CC(C)(C)c1ccc(S(=O)(=O)Nc2ccc(Cl)cc2C(=O)c2cc[n+]([O-])cc2)cc1 | 166 ± 51 | 440 ± 64 | – | – | – | – | 0.518 ± 0.11 | 0.673 ± 0.035
17 | O=C(O)CC(CC(=O)Nc1ccc(Oc2ccc(Cl)cc2)cc1)c1ccccc1 (stereo unspecified) | 170 ± 66 | 447 ± 130 | 89.8 ± 38 | 809 ± 420 | 2710 ± 500 | 877 ± 930 | 0.547 ± 0.078 | 0.583 ± 0.1
18 | COc1cc2ncnc(Nc3ccc(Oc4ccccc4)cc3)c2cc1OC | 168 ± 27 | 441 ± 100 | – | – | – | – | 0.552 ± 0.071 | 0.604 ± 0.14
19 | CNCCC(Oc1ccc(C(F)(F)F)cc1)c1ccccc1 (stereo unspecified) | 183 ± 67 | 685 ± 100 | 152 ± 22 | 135 ± 53 | 1990 ± 360 | 1970 ± 600 | 0.638 ± 0.088 | 0.466 ± 0.047
20 | COc1ccc(NS(=O)(=O)c2sc3ccc(Cl)cc3c2C)cc1N1CCNCC1 | 358 ± 500 | 459 ± 87 | 74.4 ± 35 | 837 ± 360 | 2110 ± 650 | 491 ± 500 | 0.533 ± 0.069 | 0.628 ± 0.1

Row | Compound | microglia count ([1]; LPS 0 ng/mL) | microglia count ([1]; LPS 100 ng/mL) | necrotic cell count ([2]; LPS 0 ng/mL) | necrotic cell count ([2]; LPS 100 ng/mL) | live neuron count ([3]; LPS 0 ng/mL) | live neuron count ([3]; LPS 100 ng/mL) | median microglial FormFactor ([4]; LPS 0 ng/mL) | median microglial FormFactor ([4]; LPS 100 ng/mL)
21 | CNCc1cc(=O)oc2cc(OCc3cccc(Cl)c3)ccc12 | 170 ± 49 | 463 ± 120 | 80.5 ± 33 | 893 ± 350 | 2700 ± 490 | 474 ± 660 | 0.541 ± 0.068 | 0.643 ± 0.068
22 | Fc1ccc(C(c2ccc(F)cc2)N2CCN(C/C=C/c3ccccc3)CC2)cc1 | 174 ± 68 | 484 ± 68 | 280 ± 110 | 470 ± 160 | 822 ± 370 | 898 ± 490 | 0.631 ± 0.048 | 0.533 ± 0.043
23 | O=c1[nH]c(=O)n([C@H]2C[C@H](O)[C@@H](CO)O2)cc1F | 169 ± 29 | 458 ± 80 | 108 ± 50 | 702 ± 200 | 2650 ± 490 | 701 ± 600 | 0.542 ± 0.076 | 0.625 ± 0.084
24 | C[C@]12CC[C@@H]3c4ccc(O)cc4C[C@@H](CCCCCCCCC[S+]([O-])CCCC(F)(F)C(F)(F)F)[C@H]3[C@@H]1CC[C@@H]2O (stereo partly specified) | 123 ± 26 | 645 ± 61 | – | – | – | – | 0.736 ± 0.088 | 0.479 ± 0.074
25 | COC(=O)Nc1ccc2[nH]cc(CCNC(C)=O)c2c1 | 158 ± 27 | 449 ± 130 | 85.5 ± 33 | 1010 ± 460 | 2600 ± 540 | 260 ± 310 | 0.534 ± 0.087 | 0.686 ± 0.11
26 | N#C[C@@H]1C[C@@H]2C[C@@H]2N1C(=O)[C@@H](N)C12CC3CC(CC(O)(C3)C1)C2 | 167 ± 48 | 549 ± 120 | 106 ± 29 | 493 ± 260 | 2590 ± 520 | 1060 ± 540 | 0.546 ± 0.091 | 0.562 ± 0.11
27 | Cc1c(F)cc(C(=O)NC2CC2)cc1-c1ccc(C(=O)NCC(C)(C)C)cn1 | 170 ± 45 | 513 ± 60 | – | – | – | – | 0.555 ± 0.092 | 0.574 ± 0.084
28 | CC(C)(C)NC(=O)[C@H]1CC[C@H]2[C@@H]3CC[C@H]4NC(=O)C=C[C@]4(C)[C@H]3CC[C@]12C | 178 ± 45 | 422 ± 88 | – | – | – | – | 0.545 ± 0.11 | 0.688 ± 0.06
29 | Nc1ccccc1NC(=O)c1ccc(CNC(=O)OCc2cccnc2)cc1 | 134 ± 18 | 454 ± 170 | – | – | – | – | 0.46 ± 0.049 | 0.616 ± 0.047
30 | O=C(Nc1cccc2c(=O)cc(-c3nnn[nH]3)oc12)c1ccc(OCCCCc2ccccc2)cc1 | 164 ± 43 | 424 ± 98 | – | – | – | – | 0.508 ± 0.055 | 0.703 ± 0.073
31 | N#Cc1cn(-c2c[nH]n(-c3cc(N4CC(F)(F)C4)ncn3)c2=O)cn1 | 156 ± 40 | 449 ± 100 | 97.7 ± 40 | 761 ± 260 | 2580 ± 470 | 561 ± 490 | 0.506 ± 0.078 | 0.66 ± 0.097
32 | C[C@H](NC(=O)Cc1ccc(-c2ccc3cccnc3n2)cc1)c1ccc(-c2ccc(F)c(C(F)(F)F)c2)cc1 | 185 ± 54 | 427 ± 78 | – | – | – | – | 0.565 ± 0.1 | 0.647 ± 0.07
33 | O=C(/C=C/N1C[C@H]2C[C@@H]1CN2c1ccccn1)c1ccccc1O | 179 ± 68 | 429 ± 69 | – | – | – | – | 0.542 ± 0.077 | 0.699 ± 0.064
34 | CN1[C@@H](CC(=O)c2ccccc2)CCC[C@H]1C[C@H](O)c1ccccc1 | 326 ± 470 | 455 ± 81 | – | – | – | – | 0.529 ± 0.068 | 0.664 ± 0.071
35 | CC(C)NC[C@@H](C(=O)N1CCN(c2ncnc3c2[C@H](C)C[C@H]3O)CC1)c1ccc(Cl)cc1 | 145 ± 58 | 430 ± 74 | – | – | – | – | 0.581 ± 0.086 | 0.701 ± 0.071
36 | CC(C)Oc1ccc(-c2cnc3c(-c4ccnc5ccccc45)cnn3c2)cc1 | 169 ± 44 | 428 ± 99 | 84.7 ± 36 | 947 ± 240 | 2550 ± 440 | 405 ± 410 | 0.529 ± 0.089 | 0.661 ± 0.062
37 | O=C(Nc1cccc(C(F)(F)F)c1)Nc1cc(S(=O)(=O)NC2CC2)ccc1-c1ccsc1 | 202 ± 60 | 431 ± 96 | – | – | – | – | 0.514 ± 0.12 | 0.675 ± 0.061
38 | CCOC(=O)c1ccc(NC(=O)CSc2nc3c(c(=O)n2-c2ccccc2)SCC3)cc1 | 168 ± 57 | 404 ± 110 | 86.2 ± 43 | 1110 ± 280 | 2650 ± 520 | 288 ± 170 | 0.519 ± 0.089 | 0.681 ± 0.058
39 | O=C(c1cc(Cc2n[nH]c(=O)c3ccccc23)ccc1F)N1CCN(C(=O)C2CC2)CC1 | 154 ± 33 | 423 ± 88 | – | – | – | – | 0.529 ± 0.088 | 0.715 ± 0.051

Full records from above. Values in the order: microglia count ([1]; LPS 0 ng/mL) | microglia count ([1]; LPS 100 ng/mL) | necrotic cell count ([2]; LPS 0 ng/mL) | necrotic cell count ([2]; LPS 100 ng/mL) | live neuron count ([3]; LPS 0 ng/mL) | live neuron count ([3]; LPS 100 ng/mL) | median microglial FormFactor ([4]; LPS 0 ng/mL) | median microglial FormFactor ([4]; LPS 100 ng/mL)
`CC(C)Oc1ccc(-c2cnc3c(-c4ccnc5ccccc45)cnn3c2)cc1` is listed as 169 ± 44 | 428 ± 99 | 84.7 ± 36 | 947 ± 240 | 2550 ± 440 | 405 ± 410 | 0.529 ± 0.089 | 0.661 ± 0.062
`Cc1nc(-c2ccccc2)sc1C(=O)Nc1ccc(S(N)(=O)=O)cc1` is listed as 168 ± 34 | 392 ± 63 | 86.7 ± 18 | 1070 ± 400 | 2680 ± 430 | 533 ± 800 | 0.56 ± 0.051 | 0.672 ± 0.051
